PubChem BioAssay AID504786, Drosophila RNAi Screening Center, 2011
In all, the deposit lists about 21,000 reagents; this is an unselected part of those with a known target gene and a result. 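Primary screen; positive scores mean lost reporter signal, so the sign may be inverted from the usual convention.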 Not all columns of the deposit are shown.

Screen: 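Fly genes required for HIF-dependent transcription when hypoxia is mimicked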 (primary screen)
Cells: Drosophila S2 cells with a stable HIF luciferase reporter
Knock-down reagent: long dsRNA against Drosophila genes, about 0.2 µg dsRNA per well of a 384-well plate
Timing: three days of knock-down, then 20 h of DFO before reading
Challenge: desferrioxamine (DFO) at 100 µM, an iron chelator that mimics hypoxia, for 20 h
Measured: 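Firefly luciferase driven by the mouse ldh-a hypoxia-response element, measured after 20 h of 100 µM DFO; z-scores per plate, higher means more signal lost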
Reading the numbers: z-score: higher = stronger loss of HIF reporter signal

| gene knocked down | DRSC id | z-score, replicate 1 | z-score, replicate 2 | z-score, replicate 3 |
| --- | --- | --- | --- | --- |
| CG15468 | DRSC18051 | -0.3 | -0.3 | – |
| CG7745 | DRSC07037 | 0.7 | 0.1 | – |
| JMJD5 | DRSC08372 | -0.2 | -0.5 | – |
| Atg18a | DRSC10943 | -0.1 | -0.1 | – |
| CG8461 | DRSC16424 | -0.3 | 0 | – |
| RpL23 | DRSC04648 | 7.9 | 6.5 | – |
| CG15186 | DRSC12566 | -0.4 | -0.4 | – |
| hyd | DRSC16971 | 0.9 | 0.6 | – |
| rk | DRSC03602 | -0.3 | -0.1 | – |
| Lsd-1 | DRSC14236 | -0.1 | 0 | – |
| larp | DRSC14728 | -0.3 | -0.5 | – |
| larp | DRSC16984 | -0.3 | -0.8 | – |
| CG10877 | DRSC14274 | 0.3 | -1.3 | – |

2 entries from above, set out differently:
gene knocked down,DRSC id,"z-score, replicate 1","z-score, replicate 2","z-score, replicate 3"
larp,DRSC14728,-0.3,-0.5,
larp,DRSC16984,-0.3,-0.8,

The listing continues.
| gene knocked down | DRSC id | z-score, replicate 1 | z-score, replicate 2 | z-score, replicate 3 |
| --- | --- | --- | --- | --- |
| Ir94e | DRSC15229 | -0.2 | -1 | 0.3 |
| exp | DRSC06313 | 1.2 | 1.4 | – |
| CG12589 | DRSC12215 | 0 | 0.1 | – |
| Or43a | DRSC07485 | -0.3 | -0.3 | – |
| hebe | DRSC05192 | -0.2 | -0.3 | – |
| hebe | DRSC06605 | -0.3 | 0 | -0.5 |
| Cap-H2 | DRSC14908 | -0.3 | -0.3 | – |
| NiPp1 | DRSC07307 | -0.2 | 0 | – |
| CG14811 | DRSC17962 | -0.3 | -0.2 | – |
| CG34256 | DRSC09582 | 1 | 0.3 | – |
| Cdep | DRSC12028 | -0.3 | -0.4 | – |
| Cdep | DRSC12220 | -0.4 | -0.4 | – |
| Cdep | DRSC12291 | -0.2 | 0.1 | – |
| CG7739 | DRSC10910 | -0.4 | -0.5 | – |
| Grl43a | DRSC06383 | -0.1 | -0.2 | – |
| yellow-g2 | DRSC08338 | -0.2 | -0.4 | – |
| CG10477 | DRSC09732 | -0.1 | -0.5 | – |
| CG8526 | DRSC16438 | -0.4 | -0.5 | – |
| NaCP60E | DRSC04307 | -0.2 | -0.2 | – |
| Ntan1 | DRSC07546 | -0.2 | 0 | – |
| Polr2G | DRSC16068 | 3.5 | 2.7 | – |
